This data set can be described thus: peptide made by a vendor. Particulars: whole synthesis.

HELM strings list residues between dots; [ac] is acetyl, [am] amide, other brackets name non-standard units.

“PEPTIDE1{[PTX2O-malonyl].P.V.G.L.I.G.R.R.L.S.Y.S.R.R.R.F}$$$$V2.0”: the isolated yield is listed as 87.9%.

The values are drawn from article PMC7856885 (Advanced Science, 2020).
